The source of these data is patent publication US20170247434A1.

No constants are given. Whether binding was seen depends on the method and setting. Binding can be weak; no strength is given.

The experiment has as its target genogroup V norovirus (Norovirus genogroup V). The experiment is described as follows: direct ELISA, conditions as for FIG. 1A.

B1: double A33L/Y100F mutein of Nano-85 (VHH)
VHH: DVQLVESGGGLVQPGGSLRLSCAASGSIFSIYLMGWYRQAPGKQRELVASISSGGGTNYADSVKGRFTISGDNAKNTVYLQMNSLKPEDTAVYYCKREDFSAYAPPSGSRGRGTQVTVSS
For the molecule B1, the binding result is reported as “binds”.
